Assay results taken from US20130267494A1, “1,4-OXAZEPANE DERIVATIVES” (priority 2010, published 2013).
Where a name gives a salt, the structure may show the parent alone. Some results were stated once for a whole list of compounds, not compound by compound. At least one structure is not confirmed: it was looked up by name or label, or the drawing left a doubt.

Tested on: SD female rats
Assay: Measurement of urethral resistance increasing effect (leak point pressure, oral administration)
Assay type: in vivo, rat
Settings: spinal cord-transected SD female rats, LPP at 15 min, 30 min, 1 hr, 2 hr and 4 hr after administration
Procedure: The urethral resistance increasing effect in rat was measured by a modified method of Matsumoto et al. (WO2009/063992) as follows. That is, SD female rats (CLEA Japan, Inc.) were anesthetized with isoflurane (1.0%; Abbott), and the spinal cord was transected at Th8-9 to avoid the voiding reflex. After laparotomy, an intravesical pressure measurement catheter and a saline infusion catheter (PE-100; Clay Adams) were inserted into the bladder. Thereafter, the abdomen of the rat was closed with aronalpha A “Sankyo” (Daiichi Sankyo). The rat with an inserted catheter was placed in a Bollman cage (KN-326 Bollman cage TYPE III; Natsume). The intravesical pressure measurement catheter was connected to a computer via a pressure transducer (DX-100; Nihon Koden), an amplifier (RPM-6008M; Nihon Koden/303638; SAN-EI), and a multi-channel data analyzer (MP150/MP100; Biopack), and changes in the intravesical pressure were recorded on a hard disc at a frequency of 100 samples/sec. The saline infusion catheter was connected to a 50 mL syringe (Terumo) filled with saline colored with Evans Blue (Wako). The saline was infused into the bladder from the 50 mL syringe filled with saline at a rate of 0.1 mL/sec by using an infusion pump (Kds100; KD Scientific). When the saline leaked from the urethral orifice, infusion was discontinued, and the saline in the bladder was released. The maximum pressure observed during infusion of saline into the bladder and leakage thereof was taken as an LPP (Leak point pressure) value. The measurement was repeated until the LPP value was stabilized, and an average of continuous three stable LPP values was taken as the result. In addition, the measurement of drug effect was started 1 hr after the animal was placed in the Bollman cage. The LPP value (Pre value) was measured, a drug was orally administered, and the measurement of LPP value (Post value) was again started 15 min, 30 min, 1 hr, 2 hr and 4 hr after administration. The urethral resistance increasing effect by the drug was shown by the difference between the LPP value (Post value) and LPP value (Pre value). The drug was orally administered at 2.0 mL/kg, using 0.5% methylcellulose as a vehicle. For detection of a significant difference in the urethral resistance increasing effect by the drug as compared to the vehicle, the following method was used. For comparison of 3 or more groups, the Williams' test was used for a parametric test, and the Shirley-Williams' test was used for a non-parametric test. For comparison of 2 groups, the Student's t-test was used for a parametric test, and the […] was used for a non-parametric test.

SMILES	urethral resistance increasing effect (LPP Post value minus Pre value) compared to vehicle
O=c1[nH]c(-c2cccn(C[C@@H]3CNCCO[C@H]3c3ccc(Cl)c(Cl)c3)c2=O)no1 [Example 31, 1-{[(6S,7R)-7-(3,4-dichlorophenyl)-1,4-oxazepan-6-yl]methyl}-3-(5-oxo-4,5-dihydro-1,2,4-oxadiazol-3-yl)pyridin-2(1H)-one monohydrochloride]	significant urethral resistance increasing effect
CC(=O)NC[C@@H]1CNCCO[C@H]1c1ccc(Cl)c(Cl)c1 [Example 32, N-{[(6S,7R)-7-(3,4-dichlorophenyl)-1,4-oxazepan-6-yl]methyl}acetamide 0.5 fumarate]	significant urethral resistance increasing effect
COCC(=O)NC[C@@H]1CNCCO[C@H]1c1ccc(Cl)c(Cl)c1 [Example 33, N-{[(6S,7R)-7-(3,4-dichlorophenyl)-1,4-oxazepan-6-yl]methyl}-2-methoxyacetamide monohydrochloride]	significant urethral resistance increasing effect
CC(=O)N[C@@H]1CNCCO[C@H]1c1ccc(Cl)c(Cl)c1 [Example 36, N-[(6R,7S)-7-(3,4-dichlorophenyl)-1,4-oxazepan-6-yl]acetamide monofumarate]	significant urethral resistance increasing effect
NS(=O)(=O)N[C@@H]1CNCCO[C@H]1c1ccc(Cl)c(Cl)c1 [Example 37, N-[(6R,7S)-7-(3,4-dichlorophenyl)-1,4-oxazepan-6-yl]sulfamide monohydrochloride]	significant urethral resistance increasing effect
COCC(=O)NC[C@@H]1CNCCO[C@H]1c1ccc(Cl)c(F)c1 [Example 38, N-{[(6S,7R)-7-(4-chloro-3-fluorophenyl)-1,4-oxazepan-6-yl]methyl}-2-methoxyacetamide monohydrochloride]	significant urethral resistance increasing effect
[2H]C([2H])([2H])OCC(=O)NC[C@@H]1CNCCO[C@H]1c1ccc(Cl)c(F)c1 [Example 39, N-{[(6S,7R)-7-(4-chloro-3-fluorophenyl)-1,4-oxazepan-6-yl]methyl}-2-[(^2H3)methyloxy]acetamide monohydrochloride]	significant urethral resistance increasing effect
CCOCC(=O)NC[C@@H]1CNCCO[C@H]1c1ccc(Cl)c(F)c1 [Example 40, N-{[(6S,7R)-7-(4-chloro-3-fluorophenyl)-1,4-oxazepan-6-yl]methyl}-2-ethoxyacetamide monohydrochloride]	significant urethral resistance increasing effect
CC(C)OCC(=O)NC[C@@H]1CNCCO[C@H]1c1ccc(Cl)c(F)c1 [Example 41, N-{[(6S,7R)-7-(4-chloro-3-fluorophenyl)-1,4-oxazepan-6-yl]methyl}-2-(1-methylethoxy)acetamide monohydrochloride]	significant urethral resistance increasing effect
O=c1[nH]c(-c2cccn(C[C@@H]3CNCCO[C@H]3c3ccc(Cl)c(F)c3)c2=O)no1 [Example 43, 1-{[(6S,7R)-7-(4-chloro-3-fluorophenyl)-1,4-oxazepan-6-yl]methyl}-3-(5-oxo-4,5-dihydro-1,2,4-oxadiazol-3-yl)pyridin-2(1H)-one monohydrochloride]	significant urethral resistance increasing effect
O=C(O)c1cccn(C[C@@H]2CNCCO[C@H]2c2ccc(Cl)c(F)c2)c1=O [Example 44, 1-{[(6S,7R)-7-(4-chloro-3-fluorophenyl)-1,4-oxazepan-6-yl]methyl}-2-oxo-1,2-dihydropyridine-3-carboxylic acid monohydrochloride]	significant urethral resistance increasing effect
OC[C@H](O)[C@@H]1OCCNC[C@H]1c1ccc(Cl)c(Cl)c1 [Example 45, (1S)-1-[(6R,7R)-6-(3,4-dichlorophenyl)-1,4-oxazepan-7-yl]ethane-1,2-diol monohydrochloride]	significant urethral resistance increasing effect
O=c1[nH]c(-c2cccnc2O[C@@H]2CNCCO[C@H]2c2ccc(Cl)c(F)c2)no1 [Example 556, 3-(2-{[(6R,7S)-7-(4-chloro-3-fluorophenyl)-1,4-oxazepan-6-yl]oxy}pyridin-3-yl)-1,2,4-oxadiazol-5(4H)-one monohydrochloride]	significant urethral resistance increasing effect
O=c1[nH]c(-c2ccccc2O[C@@H]2CNCCO[C@H]2c2ccc(Cl)c(F)c2)no1 [Example 577, 3-(2-{[(6R, 7S)-7-(4-chloro-3-fluoro-phenyl)-1,4-oxazepan-6-yl]oxy}phenyl)-1,2,4-oxadiazol-5(4H)-one]	significant urethral resistance increasing effect
O=c1[nH]c(-c2ncccc2O[C@@H]2CNCCO[C@H]2c2ccc(Cl)c(F)c2)no1 [Example 584, 3-(3-{[(6R, 7S)-7-(4-chloro-3-fluorophenyl)-1,4-oxazepan-6-yl]oxy}pyridin-2-yl)-1,2,4-oxadiazol-5(4H)-one]	significant urethral resistance increasing effect
